Reference: PubChem BioAssay AID602196 (INSERM, 2012)
Here is a random part of about 23,000 reagents tested. Of all reagents, 455 (2%) got an active call. 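Active includes both protection and sensitisation; some change values fall well beyond the stated -50 to +50 range.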 Unmarked entries are inactive. Not all columns of the deposit are shown. Reagent sequences are not shown. Not given: the amount of reagent.

Aim: 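Genes whose knock-down alters cisplatin killing of lung cancer cells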
System: human A549 lung cancer cells
Reagent: siRNA pair against human genes
Time to read-out: 48 h transfection before cisplatin; time from cisplatin to read-out not stated
Challenge: cisplatin at a dose killing half of control-siRNA cells; exact dose and duration not given
Detection: 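Shift in cisplatin death relative to control siRNA, from -50 (all cells die) to +50 (no cells die); siRNAs harmful on their own scored 0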
Direction: two-siRNA summed score (-2 to +2): higher = both siRNAs protect from cisplatin killing; -2 means both sensitise
Rule for the call: 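Each siRNA scores 0 if harmful alone by LDH or WST-1, otherwise +1 if it reduces and -1 if it increases cisplatin killing; a gene is active when both siRNAs agree (sum +2 or -2)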
Calls: active = both siRNAs shift cisplatin killing the same way; inactive = no consistent shift, or siRNA harmful alone

IL18BP showed two-siRNA summed score (-2 to +2) = 0.
Against RIOX2, the values are two-siRNA summed score (-2 to +2) = 0.
Against FLJ45337, the entry reads two-siRNA summed score (-2 to +2) = 0.
BORA gave two-siRNA summed score (-2 to +2) = -1.
ADRA2C showed two-siRNA summed score (-2 to +2) = 0.

Look-ups from the list.
BORA, two-siRNA summed score (-2 to +2): -1
For “two-siRNA summed score (-2 to +2)”, FLJ45337 has 0

The results go on.
Against STAT2, the values are two-siRNA summed score (-2 to +2) = -1.
After knock-down of CFAP92, the record shows two-siRNA summed score (-2 to +2) = 0.
With knock-down of EDIL3, the record shows two-siRNA summed score (-2 to +2) = 0.
SH3RF1 showed two-siRNA summed score (-2 to +2) = 0.
After knock-down of ZNF222, the screen gave two-siRNA summed score (-2 to +2) = 1.
BLVRA gave two-siRNA summed score (-2 to +2) = 1.
Against LINC02774 the deposit lists two-siRNA summed score (-2 to +2) = 0.
